# For at least one entry, the source does not settle the construct or the ends of the probe. Weaker means in comparison with the reference protein, sequence or condition of that experiment. At least one verdict rests on a figure or table, not on a statement of the authors.
# Tested on: Fbh1 + Skp1
# Test: EMSA
# Details: 3 mM Mg-acetate, ssDNA preferred over dsDNA, EMSA: 25 mM Tris-acetate pH 8.0, 1 mM DTT, 5% glycerol, 100 mM KCl, 10 nM DNA, 30 C 10 min, recombinant protein, protein details: 6His,6His, label: 32P on F3-d47
sequence,measurement,value
AGCTATGACCATGATTACGAATTGCTTGGAATCCTGACGAACTGTAG (double strand) [F3-d47/F3-d47R (47 bp dsDNA)],binding result,binds more weakly

# From publication PMC4148199, “Multiple Regulation of Rad51-Mediated Homologous Recombination by Fission Yeast Fbh1” (PLoS Genetics, 2014)
